PubChem BioAssay AID1259425, University of Nebraska Medical Center, 2018
Here is a random part of about 14,000 deposited reagents. A reagent listed more than once was tested more than once; the source does not tell the runs apart. Further read-outs or replicates are left out here. Not stated in the record: the time to read-out.

- Aim: 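Seek colon cancer weak points whose silencing resembles KSR1 loss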 (primary screen)
- Cells: HCT116 human colon cancer cells
- Reagents: siRNA pool against human genes, 50 nM siRNA
- Read-out: 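After 50 nM siRNA pool, branched-DNA assay measures six marker transcripts per well, minus blank, normalised to the geometric mean of two housekeeping transcripts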
- Reading the numbers: BNIP3L mRNA: higher = more BNIP3L transcript after knockdown; NDRG1 mRNA: higher = more NDRG1 transcript after knockdown

UTP14A (GeneID 10813) | BNIP3L mRNA, set 1: 0.0531; NDRG1 mRNA, set 1: 0.427
MYBL1 (GeneID 4603) | BNIP3L mRNA, set 1: 0.072; NDRG1 mRNA, set 1: 0.111
SPATA1 (GeneID 100505741) | BNIP3L mRNA, set 1: 0.128; NDRG1 mRNA, set 1: 0.0923
SHCBP1L (GeneID 81626) | BNIP3L mRNA, set 1: 0.115; NDRG1 mRNA, set 1: 0.281
NFATC1 (GeneID 4772) | BNIP3L mRNA, set 1: 0.0755; NDRG1 mRNA, set 1: 0.168
ATRNL1 (GeneID 26033) | BNIP3L mRNA, set 1: 0.147; NDRG1 mRNA, set 1: 0.17
ATXN1 (GeneID 6310) | BNIP3L mRNA, set 1: 0.157; NDRG1 mRNA, set 1: 0.0595
ATP6AP1 (GeneID 537) | BNIP3L mRNA, set 1: 0.402; NDRG1 mRNA, set 1: 0.25
SYNDIG1 (GeneID 79953) | BNIP3L mRNA, set 1: 0.0745; NDRG1 mRNA, set 1: 0.648
TEX2 (GeneID 55852) | BNIP3L mRNA, set 1: 0.0367; NDRG1 mRNA, set 1: 0.149
GRK4 (GeneID 2868) | BNIP3L mRNA, set 1: 0.065; NDRG1 mRNA, set 1: 0.116
GRK4 (GeneID 2868) | BNIP3L mRNA, set 1: 0.062; NDRG1 mRNA, set 1: 0.0986
SEC61G (GeneID 23480) | BNIP3L mRNA, set 1: 0.141; NDRG1 mRNA, set 1: 0.212
PC (GeneID 5091) | BNIP3L mRNA, set 1: 0.0917; NDRG1 mRNA, set 1: 0.156
MEDAG (GeneID 84935) | BNIP3L mRNA, set 1: 0.113; NDRG1 mRNA, set 1: 0.329

Continued; the last 4 above are carried over.
GRK4 (GeneID 2868) | BNIP3L mRNA, set 1: 0.062; NDRG1 mRNA, set 1: 0.0986
SEC61G (GeneID 23480) | BNIP3L mRNA, set 1: 0.141; NDRG1 mRNA, set 1: 0.212
PC (GeneID 5091) | BNIP3L mRNA, set 1: 0.0917; NDRG1 mRNA, set 1: 0.156
MEDAG (GeneID 84935) | BNIP3L mRNA, set 1: 0.113; NDRG1 mRNA, set 1: 0.329
LINC01587 (GeneID 10141) | BNIP3L mRNA, set 1: 0.0905; NDRG1 mRNA, set 1: 0.106
REG4 (GeneID 83998) | BNIP3L mRNA, set 1: 0.153; NDRG1 mRNA, set 1: 0.66
MN1 (GeneID 4330) | BNIP3L mRNA, set 1: 0.0951; NDRG1 mRNA, set 1: 0.105
NACA (GeneID 4666) | BNIP3L mRNA, set 1: 0.207; NDRG1 mRNA, set 1: 0.152
N4BP3 (GeneID 23138) | BNIP3L mRNA, set 1: 0.491; NDRG1 mRNA, set 1: 1.31
XRN2 (GeneID 22803) | BNIP3L mRNA, set 1: 0.0451; NDRG1 mRNA, set 1: 0.177
PBX2 (GeneID 5089) | BNIP3L mRNA, set 1: 0.0923; NDRG1 mRNA, set 1: 0.082
GARRE1 (GeneID 9710) | BNIP3L mRNA, set 1: 0.14; NDRG1 mRNA, set 1: 0.602
ABCC5 (GeneID 10057) | BNIP3L mRNA, set 1: 0.0452; NDRG1 mRNA, set 1: 0.131
PDLIM1 (GeneID 9124) | BNIP3L mRNA, set 1: 0.126; NDRG1 mRNA, set 1: 0.756
CCDC121 (GeneID 79635) | BNIP3L mRNA, set 1: 0.0769; NDRG1 mRNA, set 1: 0.34
EDC4 (GeneID 23644) | BNIP3L mRNA, set 1: 0.0492; NDRG1 mRNA, set 1: 0.164
SPIN2A (GeneID 54466) | BNIP3L mRNA, set 1: 0.15; NDRG1 mRNA, set 1: 0.455
